pIC50: −log10 of the molar value.

Chains of the proteins cited; added tags and fusions are not shown.
UniProt O95067, whole entry: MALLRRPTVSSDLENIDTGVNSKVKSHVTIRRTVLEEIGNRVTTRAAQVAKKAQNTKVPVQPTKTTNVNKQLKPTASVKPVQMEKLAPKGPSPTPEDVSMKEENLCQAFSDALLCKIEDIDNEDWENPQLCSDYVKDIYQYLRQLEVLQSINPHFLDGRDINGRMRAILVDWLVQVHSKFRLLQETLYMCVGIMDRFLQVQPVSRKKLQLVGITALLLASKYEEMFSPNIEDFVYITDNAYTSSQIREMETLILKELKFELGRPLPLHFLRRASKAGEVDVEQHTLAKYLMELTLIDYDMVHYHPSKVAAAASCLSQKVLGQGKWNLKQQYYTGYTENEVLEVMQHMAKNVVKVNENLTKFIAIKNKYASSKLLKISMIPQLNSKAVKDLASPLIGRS
UniProt P06493, whole entry: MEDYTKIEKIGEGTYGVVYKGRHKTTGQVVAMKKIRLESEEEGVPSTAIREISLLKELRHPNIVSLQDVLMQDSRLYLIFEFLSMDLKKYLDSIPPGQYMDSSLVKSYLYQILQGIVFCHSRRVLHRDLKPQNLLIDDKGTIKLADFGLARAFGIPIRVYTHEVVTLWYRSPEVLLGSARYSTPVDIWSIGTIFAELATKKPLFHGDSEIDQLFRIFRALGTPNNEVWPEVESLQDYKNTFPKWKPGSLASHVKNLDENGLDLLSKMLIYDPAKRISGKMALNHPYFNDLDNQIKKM
UniProt P14635, whole entry: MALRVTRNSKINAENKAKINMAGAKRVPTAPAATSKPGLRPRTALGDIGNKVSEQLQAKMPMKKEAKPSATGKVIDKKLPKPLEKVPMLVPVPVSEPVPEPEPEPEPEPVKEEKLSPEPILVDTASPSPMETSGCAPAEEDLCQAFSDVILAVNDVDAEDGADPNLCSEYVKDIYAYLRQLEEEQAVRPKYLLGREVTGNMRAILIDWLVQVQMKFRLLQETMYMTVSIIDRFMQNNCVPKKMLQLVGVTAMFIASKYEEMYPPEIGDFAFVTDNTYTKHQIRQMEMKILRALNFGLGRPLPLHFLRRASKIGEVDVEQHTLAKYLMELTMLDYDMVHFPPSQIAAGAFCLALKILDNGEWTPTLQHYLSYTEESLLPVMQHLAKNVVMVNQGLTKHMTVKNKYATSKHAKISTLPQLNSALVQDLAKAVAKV
UniProt Q8WWL7, whole entry: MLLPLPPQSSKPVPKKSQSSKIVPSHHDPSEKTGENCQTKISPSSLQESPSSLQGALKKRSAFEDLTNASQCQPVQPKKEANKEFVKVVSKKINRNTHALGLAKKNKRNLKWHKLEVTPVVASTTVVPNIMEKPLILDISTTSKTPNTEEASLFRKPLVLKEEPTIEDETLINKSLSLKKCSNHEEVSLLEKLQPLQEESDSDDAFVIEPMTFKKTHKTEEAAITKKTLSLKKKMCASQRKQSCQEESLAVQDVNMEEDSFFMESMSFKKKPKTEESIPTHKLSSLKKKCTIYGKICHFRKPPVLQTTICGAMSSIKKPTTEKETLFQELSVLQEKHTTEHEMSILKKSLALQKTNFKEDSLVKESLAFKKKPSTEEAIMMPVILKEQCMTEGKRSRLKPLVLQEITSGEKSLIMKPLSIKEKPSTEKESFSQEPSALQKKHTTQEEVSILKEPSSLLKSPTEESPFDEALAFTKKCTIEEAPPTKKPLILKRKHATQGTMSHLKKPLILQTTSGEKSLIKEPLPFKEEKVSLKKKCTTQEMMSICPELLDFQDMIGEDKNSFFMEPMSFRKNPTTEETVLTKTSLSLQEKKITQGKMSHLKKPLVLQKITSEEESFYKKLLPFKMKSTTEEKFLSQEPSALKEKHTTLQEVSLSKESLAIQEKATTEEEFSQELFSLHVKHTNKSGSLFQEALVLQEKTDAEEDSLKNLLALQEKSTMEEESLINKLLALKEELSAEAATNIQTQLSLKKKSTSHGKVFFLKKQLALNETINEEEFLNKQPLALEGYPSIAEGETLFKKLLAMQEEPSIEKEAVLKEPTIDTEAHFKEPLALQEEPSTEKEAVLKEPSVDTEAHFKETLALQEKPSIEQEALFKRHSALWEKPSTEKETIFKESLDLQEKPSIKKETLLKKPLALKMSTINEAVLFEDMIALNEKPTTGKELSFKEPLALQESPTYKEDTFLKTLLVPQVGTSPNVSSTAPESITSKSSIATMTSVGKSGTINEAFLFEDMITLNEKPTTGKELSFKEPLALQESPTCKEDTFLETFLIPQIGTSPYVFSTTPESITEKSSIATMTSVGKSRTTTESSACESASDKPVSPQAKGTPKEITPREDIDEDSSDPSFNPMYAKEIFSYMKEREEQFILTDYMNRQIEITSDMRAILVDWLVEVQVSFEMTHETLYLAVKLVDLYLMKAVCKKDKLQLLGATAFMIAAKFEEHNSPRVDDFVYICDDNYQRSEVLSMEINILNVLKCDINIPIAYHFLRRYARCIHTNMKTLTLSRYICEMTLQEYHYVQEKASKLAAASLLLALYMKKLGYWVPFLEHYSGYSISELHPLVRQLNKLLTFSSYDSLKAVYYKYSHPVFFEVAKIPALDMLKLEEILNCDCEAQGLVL

Usually pIC50 stands for the negative decadic logarithm of the IC50, by convention in mol/L. A lower pIC50 goes with a high IC50.

The target in this test is Cyclin-dependent kinase 1/cyclin B (Homo sapiens, UniProt O95067+P06493+P14635+Q8WWL7).

With `CCn1cnc2c(Nc3cccc(Cl)c3)nc(NC3CCC(O)CC3N)nc21` (stereo unspecified), the pIC50 was 7.60.
